For 73 compounds, log results are on record in the supplement of paper PMC7024190.

Structures can show the parent of a compound that is named as a salt. Some of the results follow. Repeats in this data set agree poorly, so a single value says little.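 The cells were human embryonic kidney cells carrying a Renilla luciferase gene, driven by the HSV-TK promoter, on a plasmid put in briefly by transfection. This is the first-round screen of about ten thousand compounds, looking for ones that raise reporter output.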

The test system of the test is HEK 293FT. Kind of test: log relative Renilla luciferase luminescence (reporter expression vs reference, reference not stated) (log (base not stated)); higher = higher recombinant reporter expression. The conditions noted are these: 10 µM; time after transfection 48 h.
In the case of `Cn1c(=O)c2nc[nH]c2n(C)c1=O` [Theophylline monohydrate], the log amounted to 0.0399. For `C=C1c2cccc(O)c2C(=O)C2=C(O)[C@]3(O)C(=O)C(C(N)=O)=C(O)[C@@H](N(C)C)[C@@H]3[C@@H](O)[C@H]12` [Methacycline hydrochloride] the value was 0.126.

In the case of `c1ccc(C2CN3CCSC3=N2)cc1` (stereo not drawn) [Tetramisole hydrochloride], the log worked out at 0.0283.

Consider `CCCN[C@H]1CCc2nc(N)sc2C1` [Pramipexole], for which the log came out at 0.0136.

As to `CCOC(=O)c1ccc(OC(=O)CCCCCNC(=N)N)cc1` [Gabexate mesilate], the log is -0.0196.

`Cc1cc(=O)oc2cc(O)ccc12` [Hymecromone]: the log is -0.166. For `CC(COc1ccccc1)N(CCCl)Cc1ccccc1` (stereo not drawn) [Phenoxybenzamine hydrochloride] the value was -0.0555. For `COc1ccc(CN(CCN(C)C)c2ccccn2)cc1` [Pyrilamine maleate] the value was 0.109.

On to `CCCNC(C)C(=O)Nc1ccccc1C` (stereo not drawn) [Prilocaine hydrochloride], for which the log turned out to be 0.0466. To `CCCCC[C@H](O)/C=C/[C@@H]1[C@@H](C/C=C\CCCC(=O)O)[C@@H](O)C[C@H]1O` [Dinoprost trometamol] belongs -0.058; to `CC(=O)c1ccc(S(=O)(=O)NC(=O)NC2CCCCC2)cc1` [Acetohexamide], 0.205. To `CCOC(=O)OC(C)OC(=O)[C@@H]1N2C(=O)[C@@H](NC(=O)[C@H](N)c3ccccc3)[C@H]2SC1(C)C` (stereo partly drawn) [Bacampicillin hydrochloride] belongs -0.0555; to `CCOC(=O)[C@H](CCc1ccccc1)N[C@H]1CCc2ccccc2N(CC(=O)O)C1=O` [Benazepril HCl], -0.818; to `COC1=C(OC)C(=O)C(CCCCCCCCCCO)=C(C)C1=O` [Idebenone], -0.015. Turning to `NCCCC[C@H](N[C@@H](CCc1ccccc1)C(=O)O)C(=O)N1CCC[C@H]1C(=O)O` [Lisinopril], the log was -0.296.

As for `O=C(Nc1cccc2c(=O)cc(-c3nnn[nH]3)oc12)c1ccc(OCCCCc2ccccc2)cc1` [Pranlukast], the log was -0.323. For `CC(C)(C)NC[C@H](O)COc1nsnc1N1CCOCC1` [Timolol maleate salt], the log is -0.00154.

Consider `Cc1nnc(NS(=O)(=O)c2ccc(N)cc2)s1` [Sulfamethizole], for which the log was -0.121. Consider `CCN1CCC[C@H]1CNC(=O)c1c(OC)ccc(Br)c1OC` [Remoxipride Hydrochloride], for which the log is -0.0733. `CC1CC(OC(=O)C(O)c2ccccc2)CC(C)(C)N1C` (stereo not drawn) [Eucatropine hydrochloride]: the log was -0.0256. For `Cc1cnc(NC(=O)C2=C(O)c3ccccc3S(=O)(=O)N2C)s1` [Meloxicam] the value was 0.102; for `O=C(O)COC(=O)Cc1ccccc1Nc1c(Cl)cccc1Cl` [Aceclofenac], 0.0159. As to `O=C(O)/C=C/c1ccc(Cn2ccnc2)cc1` [Ozagrel hydrochloride], the log is -0.356. Take `CCCc1nc(C)c2c(=O)nc(-c3cc(S(=O)(=O)N4CCN(CC)CC4)ccc3OCC)[nH]n12` [Vardenafil]: the log is 0.0136. As to `CCn1nc(C(=O)O)c(=O)c2cc3c(cc21)OCO3` [Cinoxacin], the log was determined as 0.0575.

As to `Cc1cc(/C=C/c2ccc3cc(N(C)C)ccc3[n+]2C)c(C)n1-c1ccccc1` [Pyrvinium pamoate], the log was -1.22. Consider `CCCCNc1ccc(C(=O)OCCOCCOCCOCCOCCOCCOCCOCCOCCOC)cc1` [Benzonatate], for which the log is -0.0432. For `COCCOC(=O)C1=C(C)NC(C)=C(C(=O)OC/C=C/c2ccccc2)C1c1cccc([N+](=O)[O-])c1` (stereo not drawn) [Cilnidipine] the value was -0.445; for `CCN1CCN(C(=O)N[C@@H](C(=O)N[C@@H]2C(=O)N3C(C(=O)O)=C(CSc4nnnn4C)CS[C@H]23)c2ccc(O)cc2)C(=O)C1=O` [Cefoperazone dihydrate], -0.2; for `CN(C)CCOc1ccc(/C(=C(/CCCl)c2ccccc2)c2ccccc2)cc1` [Toremifene], 0.0967. With `COC(=O)Nc1nc2ccc(SC(C)C)cc2[nH]1` [Methiazole], the log was determined as 0.148. For `C=C1/C(=C\C=C2/CCC[C@]3(C)[C@@H]([C@H](C)/C=C/[C@@H](O)C4CC4)CC[C@@H]23)C[C@@H](O)C[C@@H]1O` [Calcipotriene] the value was 0.0542; for `Cc1ccc(Cl)c(Nc2ccccc2C(=O)O)c1Cl` [Meclofenamic acid sodium salt monohydrate], 0.13. To `O=C(NCCO[N+](=O)[O-])c1cccnc1` [Nicorandil] belongs 0.0781; to `CC1=Nc2ccc(Cl)cc2S(=O)(=O)N1` [Diazoxide], -0.00861. To `CC(C(=O)O)c1ccc(N2Cc3ccccc3C2=O)cc1` (stereo not drawn) [Indoprofen] belongs -0.106. As for `Oc1ccc(OCc2ccccc2)cc1` [Monobenzone], the log is -0.00375. For `C[C@H]1C[C@H]2[C@@H]3CCC4=CC(=O)C=C[C@]4(C)[C@@]3(F)[C@@H](O)C[C@]2(C)[C@@]1(O)C(=O)CO` [Betamethasone] the value was 0.0143; for `C[C@H](O)C(=O)Nc1c(I)c(C(=O)NC(CO)CO)c(I)c(C(=O)NC(CO)CO)c1I` [Iopamidol], -0.0109. Consider `CC(C)CC(=O)N[C@H](C(=O)N[C@H](C(=O)N[C@@H](CC(C)C)[C@@H](O)CC(=O)N[C@@H](C)C(=O)N[C@@H](CC(C)C)[C@@H](O)CC(=O)O)C(C)C)C(C)C` [Pepstatin A], for which the log was -0.41. As to `O=C1CC2(CCCC2)CC(=O)N1CCCCN1CCN(c2ncccn2)CC1` [Buspirone hydrochloride], the log is -1.09. To `CC[C@H]1OC(=O)[C@H](C)[C@@H](O[C@H]2C[C@@](C)(OC)[C@@H](O)[C@H](C)O2)[C@H](C)[C@@H](O[C@@H]2O[C@H](C)C[C@H](N(C)C)[C@H]2O)[C@](C)(O)C[C@@H](C)[C@@H]2N[C@@H](COCCOC)O[C@H]([C@H]2C)[C@]1(C)O` [Dirithromycin] belongs 0.175; to `Cc1cc(CC(=O)O)n(C)c1C(=O)c1ccc(Cl)cc1` [Zomepirac sodium salt], 0.157; to `CC1Cc2ccccc2N1NC(=O)c1ccc(Cl)c(S(N)(=O)=O)c1` (stereo not drawn) [Indapamide], 0.13. In the case of `Nc1ccc(S(=O)(=O)Nc2ccnn2-c2ccccc2)cc1` [Sulfaphenazole], the log stood at 0.0324. To `O=C(NCC(O)CO)c1c(I)c(C(=O)NCC(O)CO)c(I)c(N(CCO)C(=O)CO)c1I` (stereo not drawn) [Ioversol] belongs -0.0164. Take `CO/N=C(\C(=O)N[C@@H]1C(=O)N2C(C(=O)O)=C(COC(N)=O)CS[C@H]12)c1ccco1` [Cefuroxime sodium salt]: the log is 0.142.

In the case of `O=C1OCCN1/N=C/c1ccc([N+](=O)[O-])o1` [Furazolidone], the log is -0.658. With `O=S(=O)(O)c1cc(O)ccc1O` [Ethamsylate], the log was found to be 0.0464.

As for `CCC(=O)O[C@]1(C(=O)CCl)[C@@H](C)C[C@H]2[C@@H]3CCC4=CC(=O)C=C[C@]4(C)[C@@]3(F)[C@@H](O)C[C@@]21C` [Clobetasol propionate], the log is -0.174. To `c1ccc([C@H]2CN3CCSC3=N2)cc1` [Levamisole hydrochloride] belongs -0.0858. To `COc1ccc(C2CNC(=O)C2)cc1OC1CCCC1` (stereo not drawn) [Rolipram] belongs 0.0806; to `NC(=O)C(c1ccccc1)(c1ccccc1)[C@@H]1CCN(CCc2ccc3c(c2)CCO3)C1` [Darifenacin hydrobromide], -0.267. Regarding `CCCNCC(O)COc1ccccc1C(=O)CCc1ccccc1` (stereo not drawn) [Propafenone hydrochloride], the log is 0.0542. To `COc1cc([C@@H]2c3cc4c(cc3[C@@H](O[C@@H]3O[C@@H]5CO[C@@H](C)O[C@H]5[C@H](O)[C@H]3O)[C@H]3COC(=O)[C@H]23)OCO4)cc(OC)c1O` [Etoposide] belongs -0.203; to `COc1ccccc1OCC(O)CN1CCN(CC(=O)Nc2c(C)cccc2C)CC1` (stereo not drawn) [Ranolazine], 0.0626. To `C[C@H]1C[C@@H]2[C@H]([C@@H](O)C[C@@]3(C)[C@H]2CC[C@]3(O)C(=O)CO)[C@@]2(C)C=CC(=O)C=C12` [Methylprednisolone, 6-alpha] belongs -0.0127; to `CC(C)NCC(O)c1ccc2ccccc2c1` (stereo not drawn) [Pronethalol hydrochloride], -0.0974. To `Nc1nc2n[nH]nc2c(=O)[nH]1` [Azaguanine-8] belongs -0.0432; to `CN(C)c1nc(N(C)C)nc(N(C)C)n1` [Altretamine], 0.0424. Regarding `Cc1c(N(C)CS(=O)(=O)O)c(=O)n(-c2ccccc2)n1C` [Dipyrone], the log amounted to 0.124. `CC(NCCC(c1ccccc1)c1ccccc1)c1ccccc1` (stereo not drawn) [Fendiline hydrochloride]: the log came out at 0.0949.

Regarding `CC(C)NCC(O)c1ccc(O)c(O)c1` (single isomer, unassigned; (+)) [(+)-Isoproterenol (+)-bitartrate salt], the log was -0.048. For `CNCC(O)c1ccc(OC(=O)C(C)(C)C)c(OC(=O)C(C)(C)C)c1` (stereo not drawn) [Dipivefrin hydrochloride] the value was -0.0739; for `CCN(CC)CCc1nc(-c2ccccc2)no1` [Oxalamine citrate salt], -0.17. For `CC(C)NC[C@@H](O)COc1cccc2ccccc12` [(R)-Propranolol hydrochloride] the value was 0.0697; for `O=c1oc2ccccc2c(O)c1Cc1c(O)c2ccccc2oc1=O` [Dicumarol], -0.656. As to `CN1CCN(CCCN2c3ccccc3Sc3ccc(Cl)cc32)CC1` [Prochlorperazine dimaleate], the log is -1.38. Consider `C[C@H](CCC(=O)O)[C@H]1CC[C@H]2[C@@H]3[C@H](O)C[C@@H]4C[C@H](O)CC[C@]4(C)[C@H]3CC[C@]12C` [Chenodiol], for which the log was 0.105. For `CN1CCN(c2c(F)cc3c(=O)c(C(=O)O)cn(CCF)c3c2F)CC1` [Fleroxacin], the log was -1.3. For `NNc1nncc2ccccc12` [Hydralazine hydrochloride] the value was -0.000277. `CC(=O)OCC(CCn1cnc2cnc(N)nc21)COC(C)=O` [Famciclovir]: the log is -0.0312. Regarding `COc1c2occc2c(OC)c2c(=O)cc(C)oc12` [Khellin], the log was -0.205.
